# Measured values: the supplement of paper PMC8728848
# Some of the results follow.
# B1: RbmA (Vibrio cholerae), A0A2H4NFB8 (protein)
# chain: MSNFKGSIMNKRHYYLASCLALLFSTASYAEVDCELQPVIEANLSLNQNQLASNGGYISSQLGIRNESCETVKFKYWLSIKGPEGIYFPAKAVVGVDTAQQESDALTDGRMLNVTRGFWVPEYMADGKYTVSLQVVAENGEVFKANQEFVKGGDLNSLPELNGLTIDIKNQFGINSVESTGGFVPFTIDLNNGREGEAKVEFWMTAVGPDGLIIPVHSREKWMIIAGNTFSKVRGINFDKSYPAGEYTINAQVVDIVSGERVEQLMTVVKK
# Tests used:
# Assay in all cases: glycan array binding signal (z-score within array); higher = stronger binding
# Conditions in all cases: glycan notation: IUPAC condensed, linker removed
# [1] = biological target: Neu5Ac(a2-3)Gal6S(b1-4)[Fuc(a1-3)]GlcNAc
# Procedure, shortened: (§1)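 Columns mapping to the same glycan were averaged after glycan names were converted to IUPAC-condensed notation. The data come from 3228 arrays in the Consortium for Functional Glycomics database, limited to those with an available protein sequence. Binding is reported as a within-array Z-score averaged across arrays of one protein sequence and across linkers.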
# Neu5Ac(a2-3)GalNAc = biological target: Neu5Ac(a2-3)GalNAc
# Procedure, shortened: as §1
# [2] = biological target: Neu5Ac(a2-3)GalNAc(b1-4)GlcNAc
# Procedure, shortened: as §1
# [3] = biological target: Neu5Ac(a2-3)[GalNAc(b1-4)]Gal(b1-4)Glc
# Procedure, shortened: as §1
# [4] = biological target: Neu5Ac(a2-3)[GalNAc(b1-4)]Gal(b1-4)GlcNAc
# Procedure, shortened: as §1
# [5] = biological target: Neu5Ac(a2-3)[GalNAc(b1-4)]Gal(b1-4)GlcNAc(b1-3)GalNAc
# Procedure, shortened: as §1
# [6] = biological target: Neu5Ac(a2-3)[Neu5Ac(a2-6)]GalNAc
# Procedure, shortened: as §1
# Neu5Ac(a2-6)Gal = biological target: Neu5Ac(a2-6)Gal
# Procedure, shortened: as §1
# [7] = biological target: Neu5Ac(a2-6)Gal(b1-3)GlcNAc(b1-3)[Gal(b1-4)GlcNAc(b1-6)]Gal(b1-4)Glc
# Procedure, shortened: as §1
# Neu5Ac(a2-6)Gal(b1-4)Glc = biological target: Neu5Ac(a2-6)Gal(b1-4)Glc
# Procedure, shortened: as §1
# [8] = biological target: Neu5Ac(a2-6)Gal(b1-4)GlcNAc
# Procedure, shortened: as §1
# [9] = biological target: Neu5Ac(a2-6)Gal(b1-4)GlcNAc(b1-2)Man
# Procedure, shortened: as §1
# [10] = biological target: Neu5Ac(a2-6)Gal(b1-4)GlcNAc(b1-2)Man(a1-3)Man(b1-4)GlcNAc(b1-4)GlcNAc
# Procedure, shortened: as §1
# [11] = biological target: Neu5Ac(a2-6)Gal(b1-4)GlcNAc(b1-2)Man(a1-3)[Gal(b1-4)GlcNAc(b1-2)Man(a1-6)]Man(b1-4)GlcNAc(b1-4)GlcNAc
# Procedure, shortened: as §1
# [12] = biological target: Neu5Ac(a2-6)Gal(b1-4)GlcNAc(b1-2)Man(a1-3)[GlcNAc(b1-2)Man(a1-6)]Man(b1-4)GlcNAc(b1-4)GlcNAc
# Procedure, shortened: as §1
# [13] = biological target: Neu5Ac(a2-6)Gal(b1-4)GlcNAc(b1-2)Man(a1-3)[GlcNAc(b1-4)][Neu5Ac(a2-6)Gal(b1-4)GlcNAc(b1-2)Man(a1-6)]Man(b1-4)GlcNAc(b1-4)GlcNAc
# Procedure, shortened: as §1
# [14] = biological target: Neu5Ac(a2-6)Gal(b1-4)GlcNAc(b1-2)Man(a1-3)[Man(a1-6)]Man(b1-4)GlcNAc(b1-4)GlcNAc
# Procedure, shortened: as §1
# [15] = biological target: Neu5Ac(a2-6)Gal(b1-4)GlcNAc(b1-2)Man(a1-3)[Neu5Ac(a2-3)Gal(b1-4)GlcNAc(b1-2)Man(a1-6)]Man(b1-4)GlcNAc(b1-4)GlcNAc
# Procedure, shortened: as §1
# [16] = biological target: Neu5Ac(a2-6)Gal(b1-4)GlcNAc(b1-2)Man(a1-3)[Neu5Ac(a2-6)Gal(b1-4)GlcNAc(b1-2)Man(a1-6)]Man(b1-4)GlcNAc(b1-4)GlcNAc
# Procedure, shortened: as §1
# [17] = biological target: Neu5Ac(a2-6)Gal(b1-4)GlcNAc(b1-2)Man(a1-3)[Neu5Ac(a2-6)Gal(b1-4)GlcNAc(b1-2)Man(a1-6)]Man(b1-4)GlcNAc(b1-4)[Fuc(a1-6)]GlcNAc
# Procedure, shortened: as §1
# [18] = biological target: Neu5Ac(a2-6)Gal(b1-4)GlcNAc(b1-2)Man(a1-6)Man(b1-4)GlcNAc(b1-4)GlcNAc
# Procedure, shortened: as §1
# [19] = biological target: Neu5Ac(a2-6)Gal(b1-4)GlcNAc(b1-2)Man(a1-6)[Gal(b1-4)GlcNAc(b1-2)Man(a1-3)]Man(b1-4)GlcNAc(b1-4)GlcNAc
# Procedure, shortened: as §1
# [20] = biological target: Neu5Ac(a2-6)Gal(b1-4)GlcNAc(b1-2)Man(a1-6)[GlcNAc(b1-2)Man(a1-3)]Man(b1-4)GlcNAc(b1-4)GlcNAc
# Procedure, shortened: as §1
# [21] = biological target: Neu5Ac(a2-6)Gal(b1-4)GlcNAc(b1-2)Man(a1-6)[Man(a1-3)]Man(b1-4)GlcNAc(b1-4)GlcNAc
# Procedure, shortened: as §1
# [22] = biological target: Neu5Ac(a2-6)Gal(b1-4)GlcNAc(b1-2)[Neu5Ac(a2-6)Gal(b1-4)GlcNAc(b1-4)]Man(a1-3)[GlcNAc(b1-4)][Neu5Ac(a2-6)Gal(b1-4)GlcNAc(b1-4)Man(a1-6)]Man(b1-4)GlcNAc(b1-4)GlcNAc
# Procedure, shortened: as §1
# [23] = biological target: Neu5Ac(a2-6)Gal(b1-4)GlcNAc(b1-2)[Neu5Ac(a2-6)Gal(b1-4)GlcNAc(b1-6)]Man(a1-6)[Neu5Ac(a2-6)Gal(b1-4)GlcNAc(b1-2)Man(a1-3)][GlcNAc(b1-4)]Man(b1-4)GlcNAc(b1-4)GlcNAc
# Procedure, shortened: as §1
# [24] = biological target: Neu5Ac(a2-6)Gal(b1-4)GlcNAc(b1-3)Gal(b1-3)GlcNAc
# Procedure, shortened: as §1
# [25] = biological target: Neu5Ac(a2-6)Gal(b1-4)GlcNAc(b1-3)Gal(b1-4)GlcNAc
# Procedure, shortened: as §1
# [26] = biological target: Neu5Ac(a2-6)Gal(b1-4)GlcNAc(b1-3)Gal(b1-4)GlcNAc(b1-2)Man(a1-3)[Neu5Ac(a2-6)Gal(b1-4)GlcNAc(b1-3)Gal(b1-4)GlcNAc(b1-2)Man(a1-6)]GalNAc
# Procedure, shortened: as §1
# [27] = biological target: Neu5Ac(a2-6)Gal(b1-4)GlcNAc(b1-3)Gal(b1-4)GlcNAc(b1-3)Gal(b1-4)GlcNAc
# Procedure, shortened: as §1
# [28] = biological target: Neu5Ac(a2-6)Gal(b1-4)GlcNAc(b1-3)Gal(b1-4)GlcNAc(b1-3)Gal(b1-4)GlcNAc(b1-2)Man(a1-3)[Neu5Ac(a2-6)Gal(b1-4)GlcNAc(b1-3)Gal(b1-4)GlcNAc(b1-3)Gal(b1-4)GlcNAc(b1-2)Man(a1-6)]GalNAc
# Procedure, shortened: as §1
# [29] = biological target: Neu5Ac(a2-6)Gal(b1-4)GlcNAc(b1-3)Gal(b1-4)GlcNAc(b1-3)GalNAc
# Procedure, shortened: as §1
# [30] = biological target: Neu5Ac(a2-6)Gal(b1-4)GlcNAc(b1-3)Gal(b1-4)GlcNAc(b1-3)[Neu5Ac(a2-6)Gal(b1-4)GlcNAc(b1-3)Gal(b1-4)GlcNAc(b1-6)]GalNAc
# Procedure, shortened: as §1
# [31] = biological target: Neu5Ac(a2-6)Gal(b1-4)GlcNAc(b1-3)Gal(b1-4)GlcNAc(b1-6)[Gal(b1-3)]GalNAc
# Procedure, shortened: as §1
# [32] = biological target: Neu5Ac(a2-6)Gal(b1-4)GlcNAc(b1-3)Gal(b1-4)[Fuc(a1-3)]GlcNAc(b1-3)Gal(b1-4)[Fuc(a1-3)]GlcNAc
# Procedure, shortened: as §1
# [33] = biological target: Neu5Ac(a2-6)Gal(b1-4)GlcNAc(b1-3)GalNAc
# Procedure, shortened: as §1
# [34] = biological target: Neu5Ac(a2-6)Gal(b1-4)GlcNAc(b1-3)[Neu5Ac(a2-6)Gal(b1-4)GlcNAc(b1-6)]GalNAc
# Procedure, shortened: as §1
binder,measurement,setting,value
B1,glycan array binding signal (z-score),[1],-1.05
same,glycan array binding signal (z-score),Neu5Ac(a2-3)GalNAc,-1.03
same,glycan array binding signal (z-score),[2],0.243
same,glycan array binding signal (z-score),[3],-0.899
same,glycan array binding signal (z-score),[4],-1.04
same,glycan array binding signal (z-score),[5],-0.426
same,glycan array binding signal (z-score),[6],-0.949
same,glycan array binding signal (z-score),Neu5Ac(a2-6)Gal,-1.27
same,glycan array binding signal (z-score),[7],2.25
same,glycan array binding signal (z-score),Neu5Ac(a2-6)Gal(b1-4)Glc,-0.776
same,glycan array binding signal (z-score),[8],-0.509
same,glycan array binding signal (z-score),[9],-0.131
same,glycan array binding signal (z-score),[10],-0.663
same,glycan array binding signal (z-score),[11],-1.26
same,glycan array binding signal (z-score),[12],-1
same,glycan array binding signal (z-score),[13],0.273
same,glycan array binding signal (z-score),[14],-0.05
same,glycan array binding signal (z-score),[15],0.136
same,glycan array binding signal (z-score),[16],0.76
same,glycan array binding signal (z-score),[17],-0.43
same,glycan array binding signal (z-score),[18],-0.641
same,glycan array binding signal (z-score),[19],-0.289
same,glycan array binding signal (z-score),[20],-0.799
same,glycan array binding signal (z-score),[21],-0.765
same,glycan array binding signal (z-score),[22],0.66
same,glycan array binding signal (z-score),[23],0.105
same,glycan array binding signal (z-score),[24],-0.286
same,glycan array binding signal (z-score),[25],-0.225
same,glycan array binding signal (z-score),[26],-0.252
same,glycan array binding signal (z-score),[27],-0.863
same,glycan array binding signal (z-score),[28],1.63
same,glycan array binding signal (z-score),[29],-0.751
same,glycan array binding signal (z-score),[30],-0.527
same,glycan array binding signal (z-score),[31],2.28
same,glycan array binding signal (z-score),[32],-0.237
same,glycan array binding signal (z-score),[33],-0.582
same,glycan array binding signal (z-score),[34],1.76

# Fetched one by one from the list above:
binder,measurement,setting,value
B1,glycan array binding signal (z-score),[10],-0.663
same,glycan array binding signal (z-score),[5],-0.426
